Values from PubChem BioAssay AID1259424 (University of Nebraska Medical Center, 2018)

- Aim: 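Seek colon cancer survival genes behaving like KSR1, using a six-gene signature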 (primary screen)
- Cells: human HCT116 colon cancer cells
- Reagent: siRNA pool against human genes, 50 nM
- Detection: 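Log2 levels of six mRNAs (branched-DNA multiplex), adjusted by two reference genes and the non-targeting median, then scored against the average KSR1 knockdown pattern as Pearson r and euclidean distance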
- Scale: mean correlation with KSR1 profile and KSR1 correlation: higher = expression change more like KSR1 knockdown; mean distance from KSR1 profile: higher = expression change less like KSR1 knockdown
The whole screen tested about 14,000 reagents; below is a part drawn at random. 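Higher correlation or smaller distance means closer resemblance to KSR1 loss; control wells, including KSR1 knockdowns, recur on many plates.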 Not stated in the record: the time to read-out.

| Target gene | mean correlation with KSR1 profile | mean distance from KSR1 profile | KSR1 correlation, replicate 1 | KSR1 correlation, replicate 2 | KSR1 correlation, replicate 3 |
| --- | --- | --- | --- | --- | --- |
| FAM107A | -0.751 | 2.11 | -0.437 | -0.762 | -0.825 |
| THBS4 | -0.233 | 2.96 | -0.145 | -0.21 | -0.291 |
| EDC4 | -0.405 | 2.2 | -0.105 | -0.551 | -0.408 |
| TEX12 | 0.17 | 3.13 | 0.0534 | -0.197 | 0.246 |
| DISP2 | 0.473 | 1.92 | 0.51 | 0.427 | 0.277 |
| COQ3 | -0.371 | 2.5 | -0.0601 | -0.353 | -0.459 |
| COA1 | 0.285 | 1.45 | 0.464 | 0.00433 | 0.131 |
| SLC6A9 | -0.301 | 2.2 | -0.43 | -0.37 | -0.116 |
| ARHGAP25 | -0.2 | 2.5 | 0.0222 | -0.211 | -0.286 |
| CCL7 | -0.258 | 3.19 | -0.0999 | -0.178 | -0.509 |
| SPRY4 | 0.193 | 2.24 | 0.22 | 0.141 | 0.035 |
| CACNA1F | -0.0162 | 1.41 | 0.0846 | 0.243 | -0.373 |
| TMEM138 | -0.0879 | 1.7 | -0.0482 | -0.0188 | 0.121 |
| RNF220 | 0.168 | 2.07 | -0.0418 | 0.208 | 0.21 |
| ERG28 | -0.336 | 2.02 | -0.222 | -0.426 | -0.251 |
| LOXL3 | -0.389 | 2.37 | -0.405 | -0.417 | -0.368 |
| ZNF654 | -0.626 | 1.44 | -0.438 | -0.645 | -0.734 |
| DOCK10 | -0.34 | 2.2 | -0.223 | 0 | -0.541 |
| ATP6V0C | -0.155 | 5.98 | -0.183 | -0.169 | -0.241 |
| ICAM3 | -0.484 | 2.5 | -0.51 | -0.401 | -0.587 |
| CITED2 | 0.573 | 1.88 | 0.463 | 0.726 | 0.503 |
| TMEM69 | -0.107 | 2.19 | -0.0605 | -0.098 | 0.0278 |
| GSPT1 | -0.283 | 2.49 | 0.0283 | -0.426 | -0.645 |
| SLC25A22 | 0.121 | 4.29 | 0.291 | 0.301 | -0.204 |
| ACP3 | 0.22 | 1.88 | 0.22 | 0.244 | 0.175 |
| SF3A3 | 0.0669 | 2.99 | -0.229 | -0.498 | 0.43 |
| SH3GLB2 | -0.494 | 3.28 | -0.538 | -0.418 | -0.303 |
| MTIF2 | -0.138 | 1.84 | -0.0858 | -0.369 | -0.271 |
| MED16 | -0.386 | 2.93 | -0.285 | -0.406 | -0.525 |
| TNRC6A | -0.261 | 2.12 | -0.43 | -0.118 | -0.485 |
| MRPL34 | 0.0785 | 2.09 | 0.0998 | -0.146 | -0.0414 |
| ATG101 | -0.228 | 2.99 | -0.225 | -0.258 | -0.115 |
| OR2A4 | 0.819 | 1.46 | 0.832 | 0.748 | 0.941 |
| SLC9A1 | 0.0782 | 1.44 | 0.188 | 0.0782 | 0.0851 |
